Literature values in patent US12121581B2, “Method of photodynamic therapy” (OSLO UNIVERSITETSSYKEHUS HF, priority 2018, dated 2024).
At least one structure is not confirmed: it was looked up by name or label, or the drawing left a doubt.

Details: GBM patients; temozolomide in addition to surgery with radiotherapy; cited from earlier work

In the case of `Cn1nnc2c(C(N)=O)ncn2c1=O` [temozolomide], the median of survival is listed as 14.6 months.
